# Structures can show the parent of a compound that is named as a salt. This is one part of the list. Single values are uncertain here, since repeats match poorly.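 Screen of FDA-approved drugs, each combined with colistin at one-eighth of its MIC, against a multidrug-resistant mcr-1-positive clinical E. coli isolate; growth read as OD600 after 24 h. Bacteria without drug were the growth control and plain broth the blank. A combination counted as active when OD600 fell below 0.2.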
# Tested on: Escherichia coli 42 (mcr-1-positive clinical isolate)
# Assay: OD600 after 24 h growth with compound plus colistin (absorbance units (OD600)); higher = more bacterial growth (less inhibition)
# Details: first compound 25 µM; colistin concentration 0.5 ug/mL; incubation time 24 h; 37 °C
row,Compound,OD600
1,CN(C)CCN(Cc1ccccc1)c1ccccn1 [Tripelennamine hydrochloride] + CCC(C)CCCC(=O)N[C@@H](CCN)C(=O)N[C@H](C(=O)N[C@@H](CCN)C(=O)N[C@H]1CCNC(=O)[C@H]([C@@H](C)O)NC(=O)[C@H](CCN)NC(=O)[C@H](CCN)NC(=O)[C@H](CC(C)C)NC(=O)[C@@H](CC(C)C)NC(=O)[C@H](CCN)NC1=O)[C@@H](C)O [colistin],inactive: 1.14
2,CC[C@H](C)C(=O)O[C@H]1C[C@H](O)C=C2C=C[C@H](C)[C@H](CC[C@@H](O)C[C@@H](O)CC(=O)O)[C@H]21 [Pravastatin sodium] + CCC(C)CCCC(=O)N[C@@H](CCN)C(=O)N[C@H](C(=O)N[C@@H](CCN)C(=O)N[C@H]1CCNC(=O)[C@H]([C@@H](C)O)NC(=O)[C@H](CCN)NC(=O)[C@H](CCN)NC(=O)[C@H](CC(C)C)NC(=O)[C@@H](CC(C)C)NC(=O)[C@H](CCN)NC1=O)[C@@H](C)O [colistin],inactive: 1.2
3,COc1cc(Cc2cnc(N)nc2N)cc(OC)c1OC [Trimethoprim] + CCC(C)CCCC(=O)N[C@@H](CCN)C(=O)N[C@H](C(=O)N[C@@H](CCN)C(=O)N[C@H]1CCNC(=O)[C@H]([C@@H](C)O)NC(=O)[C@H](CCN)NC(=O)[C@H](CCN)NC(=O)[C@H](CC(C)C)NC(=O)[C@@H](CC(C)C)NC(=O)[C@H](CCN)NC1=O)[C@@H](C)O [colistin],inactive: 1.18
4,CO[C@H]1/C=C/O[C@@]2(C)Oc3c(C)c(O)c4c(O)c(c(/C=N/N5CCN(C6CCCC6)CC5)c(O)c4c3C2=O)NC(=O)/C(C)=C\C=C\[C@H](C)[C@H](O)[C@@H](C)[C@@H](O)[C@@H](C)[C@H](OC(C)=O)[C@@H]1C [Rifapentine] + CCC(C)CCCC(=O)N[C@@H](CCN)C(=O)N[C@H](C(=O)N[C@@H](CCN)C(=O)N[C@H]1CCNC(=O)[C@H]([C@@H](C)O)NC(=O)[C@H](CCN)NC(=O)[C@H](CCN)NC(=O)[C@H](CC(C)C)NC(=O)[C@@H](CC(C)C)NC(=O)[C@H](CCN)NC1=O)[C@@H](C)O [colistin],active: 0.043

# — the supplement of paper PMC11546906
